Experimental data published in patent US20220289838A1.
These are yes or no findings as the source states them, for the method shown. Some results given as binding are weak or reduced against the parent protein; the word gives no strength.

Sequences of proteins named here, by UniProt entry; tags and fusion partners are left off. Residues count along the entry.
UniProt Q13261, residues 31-95: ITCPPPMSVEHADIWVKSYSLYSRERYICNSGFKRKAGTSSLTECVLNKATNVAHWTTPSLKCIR

Biological target: IL-15RaSushi (Miltenyi) (UniProt Q13261)
Assay: ELISA of FIG. 3B, IL-15RaSushi coated 100 ng/well by the legend (the sentence prints IL-15), anti-human kappa HRP detection

B1: BSIC-13 Syn(null) (antibody, human IgG1, kappa, V domains shown)
VH: QVTLRESGPALVKPTQTLTLTCTFSGFSLSTSGMSVGWIRQPPGKALEWLADIWWDDKKDYNPSLKSRLTISKDTSKNQVVLKVTNMDPADTATYYCARSMITNWYFDVWGAGTTVTVSS
VL: DIQMTQSPSTLSASVGDRVTITCKCQLSVGYMHWYQQKPGKAPKLLIYDTSKLASGVPSRFSGSGSGTEFTLTISSLQPDDFATYYCFQGSGYPFTFGGGTKLEIKR
- binding: binds
